Measured values taken from paper PMC12847786.
These are yes or no findings as the source states them, for the method shown. In cells and extracts the contact can be indirect. Binding can be weak; no strength is given.

T1: Cellular communication network factor 1 (CCN1) (UniProt P18406)
T1 sequence: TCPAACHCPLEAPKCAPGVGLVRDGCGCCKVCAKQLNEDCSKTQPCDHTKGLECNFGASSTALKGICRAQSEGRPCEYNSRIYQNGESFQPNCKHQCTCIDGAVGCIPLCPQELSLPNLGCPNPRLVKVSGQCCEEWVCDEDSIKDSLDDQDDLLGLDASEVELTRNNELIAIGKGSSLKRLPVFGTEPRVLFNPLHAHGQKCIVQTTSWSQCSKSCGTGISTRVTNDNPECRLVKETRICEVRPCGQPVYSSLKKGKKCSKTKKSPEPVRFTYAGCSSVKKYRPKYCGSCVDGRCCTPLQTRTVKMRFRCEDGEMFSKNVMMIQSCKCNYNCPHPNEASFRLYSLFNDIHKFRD


How the values were obtained:
[1] = biological target: T1, Cellular communication network factor 1 (CCN1); assay: co-IP; BMDM lysate in IP lysis buffer, antibody or control IgG overnight at 4 °C, magnetic beads, three washes, Western blot; reciprocal Co-IP
[2] = biological target: integrin αvβ5 (mouse (endogenous in BMDMs)); assay: as above

Row | binding [1] | binding [2] | Molecule
1 | binds |  | integrin αvβ5 (mouse (endogenous in BMDMs)) (complex)
2 |  | binds | Cellular communication network factor 1 (CCN1) (protein, UniProt P18406 25-379) TCPAACHCPLEAPKCAPGVGLVRDGCGCCKVCAKQLNEDCSKTQPCDHTKGLECNFGASSTALKGICRAQSEGRPCEYNSRIYQNGESFQPNCKHQCTCIDGAVGCIPLCPQELSLPNLGCPNPRLVKVSGQCCEEWVCDEDSIKDSLDDQDDLLGLDASEVELTRNNELIAIGKGSSLKRLPVFGTEPRVLFNPLHAHGQKCIVQTTSWSQCSKSCGTGISTRVTNDNPECRLVKETRICEVRPCGQPVYSSLKKGKKCSKTKKSPEPVRFTYAGCSSVKKYRPKYCGSCVDGRCCTPLQTRTVKMRFRCEDGEMFSKNVMMIQSCKCNYNCPHPNEASFRLYSLFNDIHKFRD
